doi:10.1101/2022.04.27.489743 (bioRxiv, 2022)
Results are given in words; binding and its absence hold for the method and conditions named. Some results given as binding are weak or reduced against the parent protein; the word gives no strength.

How the values were obtained:
[1] = target: T1, AnkG ANK repeats (R1-24, residues 38-855) (UniProt O70511); assay: ITC
T1 sequence: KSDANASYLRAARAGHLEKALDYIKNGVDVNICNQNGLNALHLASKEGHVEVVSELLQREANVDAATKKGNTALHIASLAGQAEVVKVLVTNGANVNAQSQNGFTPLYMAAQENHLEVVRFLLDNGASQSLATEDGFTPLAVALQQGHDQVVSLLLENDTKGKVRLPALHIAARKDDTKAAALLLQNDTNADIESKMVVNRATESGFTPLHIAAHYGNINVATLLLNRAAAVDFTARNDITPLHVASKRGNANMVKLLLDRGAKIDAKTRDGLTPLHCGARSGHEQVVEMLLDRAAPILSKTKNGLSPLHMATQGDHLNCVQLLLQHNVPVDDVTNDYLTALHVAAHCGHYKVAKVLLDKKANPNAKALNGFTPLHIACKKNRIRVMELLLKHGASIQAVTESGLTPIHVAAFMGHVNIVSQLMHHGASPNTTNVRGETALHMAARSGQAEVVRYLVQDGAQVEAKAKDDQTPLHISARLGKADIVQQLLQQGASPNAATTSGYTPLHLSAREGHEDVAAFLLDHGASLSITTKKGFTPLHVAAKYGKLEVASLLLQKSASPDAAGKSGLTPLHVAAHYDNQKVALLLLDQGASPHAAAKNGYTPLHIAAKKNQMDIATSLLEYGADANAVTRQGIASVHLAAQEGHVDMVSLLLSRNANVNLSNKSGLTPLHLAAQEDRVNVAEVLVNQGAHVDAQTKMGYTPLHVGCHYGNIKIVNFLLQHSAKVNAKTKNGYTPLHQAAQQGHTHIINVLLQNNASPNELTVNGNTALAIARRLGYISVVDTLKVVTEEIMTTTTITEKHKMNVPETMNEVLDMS

[2] = target: T1, AnkG ANK repeats (R1-24, residues 38-855); assay: SEC
[3] = target: T2, AnkG 275-571 (AnkG R8-16) (UniProt O70511); assay: SEC
T2 sequence: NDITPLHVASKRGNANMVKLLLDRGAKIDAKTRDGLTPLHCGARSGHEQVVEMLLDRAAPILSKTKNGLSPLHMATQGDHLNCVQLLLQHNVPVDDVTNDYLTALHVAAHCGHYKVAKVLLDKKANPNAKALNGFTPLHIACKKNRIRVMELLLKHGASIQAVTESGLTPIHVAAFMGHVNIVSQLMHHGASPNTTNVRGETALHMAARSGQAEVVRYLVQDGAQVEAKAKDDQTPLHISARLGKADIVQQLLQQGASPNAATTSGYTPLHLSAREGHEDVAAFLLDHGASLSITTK

[4] = target: T2, AnkG 275-571 (AnkG R8-16); assay: crystal structure
[5] = target: GST-L1CAM 1206-1233 WT (UniProt Q05695); assay: pull-down
[6] = target: T1, AnkG ANK repeats (R1-24, residues 38-855); assay: ITC; remark: listed apart in the source

| Molecule | binding [1] | also measured |
| --- | --- | --- |
| Nfasc 1198-1214 D1205A (from UniProt P97685 1198-1214) (peptide) | binds |  |
| Nfasc 1198-1214 I1209Q (from UniProt P97685 1198-1214) (peptide) | binds |  |
| Nfasc 1198-1214 F1208Q (from UniProt P97685 1198-1214) (peptide) | binds |  |
| Nfasc 1198-1214 (from UniProt P97685 1198-1214) (peptide) | binds |  |
| Nfasc 1198-1214 D1205K (from UniProt P97685 1198-1214) (peptide) | binds |  |
| SDDSLVDYGEGGEGQFNEDGSFIGQYTV (domain or fragment) [Nfasc ankyrin binding domain (ABD), residues 1187-1214] |  | binding [2]: binds; binding [3]: binds; binding [4]: binds |
| AnkG ANK repeats (R1-24, residues 38-855) (domain or fragment, UniProt O70511 38-855) KSDANASYLRAARAGHLEKALDYIKNGVDVNICNQNGLNALHLASKEGHVEVVSELLQREANVDAATKKGNTALHIASLAGQAEVVKVLVTNGANVNAQSQNGFTPLYMAAQENHLEVVRFLLDNGASQSLATEDGFTPLAVALQQGHDQVVSLLLENDTKGKVRLPALHIAARKDDTKAAALLLQNDTNADIESKMVVNRATESGFTPLHIAAHYGNINVATLLLNRAAAVDFTARNDITPLHVASKRGNANMVKLLLDRGAKIDAKTRDGLTPLHCGARSGHEQVVEMLLDRAAPILSKTKNGLSPLHMATQGDHLNCVQLLLQHNVPVDDVTNDYLTALHVAAHCGHYKVAKVLLDKKANPNAKALNGFTPLHIACKKNRIRVMELLLKHGASIQAVTESGLTPIHVAAFMGHVNIVSQLMHHGASPNTTNVRGETALHMAARSGQAEVVRYLVQDGAQVEAKAKDDQTPLHISARLGKADIVQQLLQQGASPNAATTSGYTPLHLSAREGHEDVAAFLLDHGASLSITTKKGFTPLHVAAKYGKLEVASLLLQKSASPDAAGKSGLTPLHVAAHYDNQKVALLLLDQGASPHAAAKNGYTPLHIAAKKNQMDIATSLLEYGADANAVTRQGIASVHLAAQEGHVDMVSLLLSRNANVNLSNKSGLTPLHLAAQEDRVNVAEVLVNQGAHVDAQTKMGYTPLHVGCHYGNIKIVNFLLQHSAKVNAKTKNGYTPLHQAAQQGHTHIINVLLQNNASPNELTVNGNTALAIARRLGYISVVDTLKVVTEEIMTTTTITEKHKMNVPETMNEVLDMS |  | binding [5]: binds |
| full-length Nfasc cytoplasmic tail, residues 1132-1240 (domain or fragment, UniProt P97685 1132-1240) KRSRGGKYPVREKKDVPLGPEDPKEEDGSFDYSDEDNKPLQGSQTSLDGTIKQQESDDSLVDYGEGGEGQFNEDGSFIGQYTVRKDKEETEGNESSEATSPVNAIYSLA |  | binding [6]: binds |
